Assay results: PubChem BioAssay AID977622 (Broad Institute, 2014)
Hit rate of the full screen: of about 1,900 compounds, fewer than 10 were called active. This list was built around the results that the source calls inconclusive (neither active nor inactive); the mix of calls is not that of the screen.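 The calls were made as follows: active = Green signal of the normal strain falls at least twice as much as red signal of the resistant mutant, with overall culture growth loss under a set limit; inconclusive = no clear call, values can overlap the other calls; inactive = the rest.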

Experiment: wild-type E. coli growth inhibition versus h38 humanized strain – h38 mutant RFP, wild-type GFP, cherry-pick, dose response (AID 977622)
Conditions: E. coli WT ribosome GFP fluorescence, mixed culture, 24 h; at 50 µM (top of the series)
With `O=C(O)c1ccc2c(c1)N(Cc1ccccc1)C(=O)c1ccccc1S2` the activity change, negative = inhibition was inconclusive: 6.03.
With `CC(C)n1c(C(=O)OCC(=O)NCc2ccc3c(c2)OCO3)cc2sccc21` the activity change, negative = inhibition was inconclusive: -35.9.
In the case of `Cc1cccc(-c2ccc([C@H]3[C@H](CO)N4CCCCN(S(=O)(=O)c5ccccc5C)C[C@@H]34)cc2)c1`, the activity change, negative = inhibition is reported as inactive: 12.2.
With `Cc1ccc(Cl)cc1N1CCN(C(=O)c2ccc3nc[nH]c3c2)CC1` the activity change, negative = inhibition was inconclusive: -6.46.
In the case of `COc1cccc(CC(=O)OC(C)C(=O)NCc2ccc3c(c2)OCO3)c1` (centres undefined), the activity change, negative = inhibition is reported as inactive: -14.3.
For `Cc1ccc(-c2ccc3c(c2)O[C@@H](CN(C)Cc2cccc(C(=O)O)c2)[C@H](C)CN([C@@H](C)CO)S3(=O)=O)cc1`, the activity change, negative = inhibition was inconclusive: -25.7.
With `CCOc1ccc(NS(=O)(=O)c2ccc(C(=O)N3CCN(c4ncccn4)CC3)cc2)cc1` the activity change, negative = inhibition was inconclusive: -17.7.
In the case of `Cc1ccccc1S(=O)(=O)N1C[C@H]2CON(C)[C@H]2C[C@H]1c1cccc(-c2ccc(C#N)cc2)c1`, the activity change, negative = inhibition is reported as inactive: -0.492.
For `COc1ccc(NS(=O)(=O)c2cc(NC(=O)CNC(=O)c3cccc(OC)c3)ccc2C)cc1`, the activity change, negative = inhibition was inactive: -12.
With `C[C@H](CO)N1C[C@H](C)[C@@H](CN(C)C)OCCCC[C@H](C)Oc2ccc(NC(=O)Nc3cccc4ccccc34)cc2C1=O` the activity change, negative = inhibition was inconclusive: 23.
For `CC(=O)c1ccc(-c2cccc([C@H]3[C@@H]4C=CC[C@@H](C)[C@@H]4C(=O)N3Cc3ccccc3)c2)cc1`, the activity change, negative = inhibition was inconclusive: 23.9.
With `Cc1ccc(-n2nnnc2SCC(=O)NC2CCCc3ccccc32)cc1` (centres undefined) the activity change, negative = inhibition was inactive: 0.733.
With `Cc1nc(Sc2ccc(Cl)cc2)c(C#N)c(C)c1[N+](=O)[O-]` the activity change, negative = inhibition was inconclusive: -21.3.
With `Cc1cc(NC(=O)c2sc(Nc3ccc(F)c(Cl)c3)nc2N)no1` the activity change, negative = inhibition was inconclusive: 12.8.
With `O=C1OCCC1Sc1nc2ccccc2c(=O)n1Cc1ccccc1` (centres undefined) the activity change, negative = inhibition was inconclusive: -14.4.
For `CCN(CC)CCCN(C(=O)c1ccco1)c1nc(-c2ccc(C)cc2)cs1`, the activity change, negative = inhibition was inconclusive: -12.
With `COc1ccc(C(=O)Nc2ccc(Nc3ccccc3)cc2)cc1[N+](=O)[O-]` the activity change, negative = inhibition was inconclusive: -9.39.
In the case of `O=C(Nc1ccccc1F)N1CCCCN2[C@@H](CO)[C@H](c3ccc(C#Cc4cccnc4)cc3)[C@@H]2C1`, the activity change, negative = inhibition is reported as inconclusive: -1.26.
For `CCOC(=O)c1c(C)nsc1NCc1ccccc1`, the activity change, negative = inhibition was inconclusive: -8.72.
With `CCS(=O)(=O)N1CCN(c2ccnc3cc(Cl)ccc23)CC1` the activity change, negative = inhibition was inactive: 4.08.
With `O=C(c1ccccc1)c1ccc2nc(-c3ccc(NC(=O)c4ccccc4Br)cc3)[nH]c2c1` the activity change, negative = inhibition was inconclusive: 9.2.
In the case of `CCCC#C/C(CCC)=C1\c2ccccc2C(=O)N1c1ccccc1`, the activity change, negative = inhibition is reported as inconclusive: 1.97.
For `COc1cccc(NC(=O)c2ccc(NCCCN3CC(C)CC(C)C3)c([N+](=O)[O-])c2)c1` (centres undefined), the activity change, negative = inhibition was inconclusive: 16.1.
In the case of `Cc1cc(C)nc(SCCC(=O)Nc2ccccc2Cl)n1`, the activity change, negative = inhibition is reported as inactive: -8.14.
In the case of `CC(CCc1ccccc1)NC(=O)CCC1CCCC1` (centres undefined), the activity change, negative = inhibition is reported as inactive: 5.7.
In the case of `COc1cccc(NC(=O)C(C)SCc2ccccc2)c1` (centres undefined), the activity change, negative = inhibition is reported as inconclusive: 10.5.
For `Nc1nc(Nc2ccccc2)nc(NCc2ccccc2)c1[N+](=O)[O-]`, the activity change, negative = inhibition was inconclusive: -14.8.
With `Cc1cc(C)c(OCCN(C)Cc2ccccc2)c(Br)c1` the activity change, negative = inhibition was inconclusive: -0.942.
In the case of `OC[C@H]1[C@H](c2ccc(-c3ccc(F)cc3)cc2)[C@@H]2CN(Cc3ccncc3)CCCCN12`, the activity change, negative = inhibition is reported as inactive: -8.31.
With `CCOc1ccccc1C(=O)OCC(=O)NCCc1ccc(OC)cc1` the activity change, negative = inhibition was inconclusive: -23.6.
For `COc1ccc(OC)c(NC(=O)COc2ccc(S(=O)(=O)NC(C)C)cc2)c1`, the activity change, negative = inhibition was inactive: -12.2.
For `O=C(O)C1(Nc2ccc([N+](=O)[O-])cc2[N+](=O)[O-])CCCC1`, the activity change, negative = inhibition was inconclusive: -4.2.
In the case of `CCOc1cccc(-c2cc(-c3n[nH]c(=S)n3CC)c3ccccc3n2)c1`, the activity change, negative = inhibition is reported as inconclusive: -9.33.
With `O=C(O)C1CCCCC1C(=O)Nc1ccc(OCc2ccccc2)cc1` (centres undefined) the activity change, negative = inhibition was inconclusive: -11.9.
With `Cc1cc(Br)c2nc(-c3ccc(Cl)cc3)c(Cc3cccc(Cl)c3)n2c1` the activity change, negative = inhibition was inconclusive: -11.
In the case of `Fc1ccc(-c2nc3ccc(Cl)cn3c2Cc2cccc(Cl)c2)cc1`, the activity change, negative = inhibition is reported as inconclusive: -4.81.
In the case of `CCN(CC)CCN(C(=O)c1ccc2c(c1)OCCO2)c1nc2c(Cl)cccc2s1`, the activity change, negative = inhibition is reported as inconclusive: -18.3.
In the case of `CCCC(=O)Nc1cccc(C(=O)Nc2ccccc2OCC)c1`, the activity change, negative = inhibition is reported as inconclusive: -1.43.
In the case of `Clc1ccc(-c2nc(NCCCN3CCOCC3)c3ccccc3n2)cc1`, the activity change, negative = inhibition is reported as inconclusive: -25.
With `COCCCNC(=O)c1ccc(-c2nc3ccccc3nc2-c2ccccc2)cc1` the activity change, negative = inhibition was inactive: -0.868.
In the case of `O=C(NCc1nnnn1-c1ccc(Cl)cc1)c1ccc([N+](=O)[O-])o1`, the activity change, negative = inhibition is reported as inconclusive: -19.1.
With `COCCn1c(SCc2nc3ccccc3s2)nc2ccccc21` the activity change, negative = inhibition was inactive: -4.44.
With `CN(C(=O)c1ccc(F)cc1)c1ccc(OCC(=O)Nc2ccccc2C(=O)O)cc1` the activity change, negative = inhibition was inconclusive: -8.35.
For `O=C(C[n+]1ccn(-c2ccccc2)c1)c1ccc([N+](=O)[O-])cc1`, the activity change, negative = inhibition was inactive: -5.47.
For `COc1ccc(Cl)cc1NC(=O)CN(C)CC(=O)Nc1ccccc1-c1ccccc1`, the activity change, negative = inhibition was inconclusive: -21.7.
In the case of `CS(=O)(=O)c1cccc(C(=O)Nc2cccc(-c3nc4ccccc4[nH]3)c2)c1`, the activity change, negative = inhibition is reported as inconclusive: -25.8.
In the case of `O=C(NC1CCCC1)c1ccc([N+](=O)[O-])s1`, the activity change, negative = inhibition is reported as inconclusive: -3.97.
For `COc1ccc(C(=O)Nc2ccc3nc(C)sc3c2)cc1OC`, the activity change, negative = inhibition was inconclusive: -24.7.
In the case of `COC(=O)C1CCN(C(=O)c2ccc(OC)c(S(=O)(=O)N3CCCc4ccccc43)c2)CC1`, the activity change, negative = inhibition is reported as inconclusive: -11.3.
For `O=S(=O)(NC1c2cccc3cccc(c23)C1Sc1ncccn1)c1ccccc1` (centres undefined), the activity change, negative = inhibition was inconclusive: -18.4.
For `Cc1nn(Cc2cccc(F)c2)c(C)c1NC(=O)c1c(Cl)cnn1C`, the activity change, negative = inhibition was inconclusive: 1.35.
With `CCc1ccn2cc(-c3ccc4c(c3)OCO4)nc2c1` the activity change, negative = inhibition was inconclusive: -0.089.
In the case of `COc1ccc(NC(=O)CSc2nnc(Cc3ccccc3)o2)c(OC)c1`, the activity change, negative = inhibition is reported as inconclusive: -7.25.
With `COc1ccccc1-c1nnc(C2CCN(S(=O)(=O)c3cccc([N+](=O)[O-])c3)CC2)o1` the activity change, negative = inhibition was inconclusive: -22.
With `O=C1CCCN1c1ccc([N+](=O)[O-])cc1` the activity change, negative = inhibition was inconclusive: -12.3.
For `Cc1cc2oc(C(=O)N3CCN(Cc4ccccc4)CC3)c(C)c2cc1C`, the activity change, negative = inhibition was inconclusive: -92.4.
For `CC(=O)c1cccc(NC(=O)C2CCCN(S(C)(=O)=O)C2)c1` (centres undefined), the activity change, negative = inhibition was inactive: 6.57.
With `Cc1occc1C(=O)Nc1ccc2c(c1)CCC2` the activity change, negative = inhibition was inconclusive: -13.1.
For `COCC#Cc1ccc2c(c1)O[C@@H](CN(C)S(=O)(=O)c1cccc(F)c1)[C@@H](C)CN([C@H](C)CO)S2(=O)=O`, the activity change, negative = inhibition was inconclusive: -6.86.
For `COc1ccccc1OCC(=O)Nc1ccc(S(=O)(=O)N2CCCCCC2)cc1`, the activity change, negative = inhibition was inconclusive: -8.74.
In the case of `CN(CCOc1ccccc1)S(=O)(=O)c1ccccc1C#N`, the activity change, negative = inhibition is reported as inactive: -3.4.
In the case of `CN1CCN(C(=O)C[C@H]2CC[C@H]3[C@@H](COC[C@H](O)CN3C(=O)Nc3ccc(Cl)cc3)O2)CC1`, the activity change, negative = inhibition is reported as inconclusive: -53.6.
In the case of `COc1ccc(/C=C/c2nc3ccccc3n2Cc2ccccc2OC)cc1`, the activity change, negative = inhibition is reported as inconclusive: -21.9.
With `COCC(=O)N1[C@@H]2CN(C(=O)Nc3ccccc3F)c3ccccc3[C@@H]2[C@@H]1CO` the activity change, negative = inhibition was inconclusive: -3.63.
In the case of `Cc1ccccc1NC(=O)c1ccccc1N(C)S(=O)(=O)c1ccccc1`, the activity change, negative = inhibition is reported as inactive: -9.97.
With `Cc1cc(C)c(C#N)c(N2CCN(c3ccccc3)CC2)n1` the activity change, negative = inhibition was inconclusive: -29.9.
With `O=C(c1csc(Nc2cccc3ccccc23)n1)N1CCCC1` the activity change, negative = inhibition was inconclusive: -41.3.
In the case of `Cc1cc(C)cc(NC(=O)c2cccc(NC(=O)c3ccco3)c2)c1`, the activity change, negative = inhibition is reported as inconclusive: -26.2.
With `COc1cc(C#N)ccc1OCC(=O)Nc1cccc(S(=O)(=O)N2CCCC2)c1` the activity change, negative = inhibition was inactive: -0.997.
With `CN(C(=O)COc1ccccc1C(=O)NCCOc1ccccc1)c1ccccc1` the activity change, negative = inhibition was inconclusive: -13.1.
In the case of `O=C(Nc1cccc(Cl)c1)N1C[C@H]2[C@@H](c3ccccc31)[C@@H](CO)N2C(=O)c1ccncc1`, the activity change, negative = inhibition is reported as inconclusive: -57.4.
In the case of `COc1cccc(NC(=O)CN(C)CC(=O)Nc2ccc(Br)cc2)c1`, the activity change, negative = inhibition is reported as inconclusive: -21.3.
With `O=C(NCCCCc1ccccc1)c1cccc(NC(=O)C2CCCCC2)c1` the activity change, negative = inhibition was inconclusive: -28.4.
With `O=C(Nc1ccc(C(=O)Nc2ccccc2Cl)cc1)c1cccnc1` the activity change, negative = inhibition was inactive: -6.75.
With `CN(C(=O)CN1C(=O)NC2(CCc3ccccc32)C1=O)C1CCCCC1` (centres undefined) the activity change, negative = inhibition was inconclusive: -2.64.
In the case of `Cc1ccc(C(=O)Nc2cccc3[nH]c(C(F)(F)F)nc23)cc1`, the activity change, negative = inhibition is reported as inactive: -2.7.
For `COCCCNc1ccn2nc(-c3ccccc3)cc2n1`, the activity change, negative = inhibition was inconclusive: 7.55.
In the case of `CCOC(=O)C1NN=C(C(=O)c2ccccc2)C1c1ccc(OC)cc1` (centres undefined), the activity change, negative = inhibition is reported as inconclusive: -7.34.
In the case of `COC(=O)[C@H](Cc1c[nH]c2ccccc12)NCc1cccc(B(O)O)c1`, the activity change, negative = inhibition is reported as inconclusive: 12.9.
With `COC(=O)CN1C(=S)N(c2ccc(F)cc2)C(=O)C1CC(=O)Nc1ccc(F)cc1` (centres undefined) the activity change, negative = inhibition was inactive: 4.1.
With `Cc1occc1-c1nnc(SCC(=O)Nc2nc(-c3ccccc3)cs2)o1` the activity change, negative = inhibition was inactive: -2.64.
With `C[C@H]1CN([C@@H](C)CO)C(=O)c2c(c3ccccc3n2C)-c2ccccc2CO[C@@H]1CN(C)Cc1ccncc1` the activity change, negative = inhibition was inactive: -3.59.
With `O=C(CN1CCCCC1)Nc1ccccc1-c1ccccc1` the activity change, negative = inhibition was inconclusive: 3.84.
In the case of `C[C@@H]1CCCCO[C@H](CN(C)C)[C@H](C)CN([C@H](C)CO)C(=O)c2cc(NC(=O)Nc3cccc4ccccc34)ccc2O1`, the activity change, negative = inhibition is reported as inconclusive: -17.6.
